{"source": "patent US8765184B2", "about": "(Stanipharm, priority 2009, dated 2014)", "assay": "Wet mode laser particle measurement of sirolimus particles (Example 3)", "assay_type": "physicochemical", "conditions": "one of the 3 samples", "note": "For at least one compound, name, drawing or mass did not settle the structure.", "data": [{"smiles": "CO[C@H]1C[C@@H]2CC[C@@H](C)[C@@](O)(O2)C(=O)C(=O)N2CCCC[C@H]2C(=O)O[C@H]([C@H](C)C[C@@H]2CC[C@@H](O)[C@H](OC)C2)CC(=O)[C@H](C)/C=C(\\C)[C@@H](O)[C@@H](OC)C(=O)[C@H](C)C[C@H](C)/C=C/C=C/C=C/1C", "note": "[Test 3-1, sirolimus]", "values": [{"measurement": "particles having a volume equivalent diameter of more than 100 μm", "result": "about 30%"}]}]}
